Measured values from PMC10363768.
Results are given in words; binding and its absence hold for the method and conditions named. A result given as binding can be weak or reduced; the word gives no strength. For some assays here: Sequences can lack the tags named with a protein. For some assays here: In cells and extracts the contact can be indirect.

How the values were obtained:
OsUbc13-cYFP (rice) = assay: split reporter; BiFC; nYFP and cYFP fusions co-expressed in N. benthamiana leaves by Agrobacterium infiltration, 2 days, confocal microscopy (514 nm laser)
OsOTUB1.1-cYFP (rice) = assay: as above
OsUbc13-nYFP (rice) = assay: as above
OsOTUB1.1-nYFP (rice) = assay: as above
cLuc-OsOTUB1.1 (rice) = assay: split reporter; firefly split-luciferase complementation imaging (LCI); nLuc and cLuc fusions co-expressed in N. benthamiana leaves by Agrobacterium infiltration, 2 days, 1 mM luciferin, cooled CCD imaging
cLuc-OsUbc13 (rice) = assay: as above
OsUbc13-eGFP (rice) = assay: co-IP; total protein of infiltrated N. benthamiana leaves; anti-GFP agarose beads, 2 h at 4 °C; 50 mM Tris-HCl pH 7.5, 100 mM NaCl, 1 mM EDTA; immunoblot with anti-GFP and anti-OsSnRK1a
[1] = target: 8 × His-OsUbc13-GFP (rice) (UniProt Q8W0I1); assay: pull-down; cell-free expressed and purified fusion proteins mixed (100 μL each), 4 °C for 4 h, then His-tag magnetic beads 1 h at 4 °C, six washes; immunoblot with anti-His and anti-Flag; both purified

B1: OsSnRK1a-nYFP (enzyme, UniProt Q852Q2 1-505)
chain: MEGAGRDGNPLGGYRIGKTLGIGSFGKVKIAEHILTGHKVAIKILNRRKIKSMEMEEKVKREIKILRLFMHPHIIRLYEVIDTPADIYVVMEYVKSGELFDYIVEKGRLQEEEARRFFQQIISGVEYCHRNMVVHRDLKPENLLLDSKCNVKIADFGLSNVMRDGHFLKTSCGSPNYAAPEVISGKLYAGPEVDVWSCGVILYALLCGTLPFDDENIPNLFKKIKGGIYTLPSHLSPLARDLIPRMLVVDPMKRITIREIREHQWFTVGLPRYLAVPPPDTAQQVKKLDDETLNDVINMGFDKNQLIESLHKRLQNEATVAYYLLLDNRLRTTSGYLGAEFHESMESSLAQVTPAETPNSATDHRQHGHMESPGFGLRHHFAADRKWALGLQSRAHPREIITEVLKALQELNVCWKKIGHYNMKCRWSPSFPSHESMMHNNHGFGAESAIIETDDSEKSTHTVKFEIQLYKTRDEKYLLDLQRVSGPQLLFLDLCSAFLTQLRVL
OsUbc13-cYFP (rice)
  binding: binds
OsOTUB1.1-cYFP (rice)
  binding: binds

B2: OsSnRK1a-cYFP (enzyme, UniProt Q852Q2 1-505)
chain: B1 chain
OsUbc13-nYFP (rice)
  binding: binds
OsOTUB1.1-nYFP (rice)
  binding: binds

B3: OsSnRK1a-nLuc (enzyme, UniProt Q852Q2 1-505)
chain: B1 chain
cLuc-OsOTUB1.1 (rice)
  binding: binds
cLuc-OsUbc13 (rice)
  binding: binds

B4: OsSnRK1a (enzyme, UniProt Q852Q2 1-505)
chain: B1 chain
OsUbc13-eGFP (rice)
  binding: binds

B5: 3 × Flag-OsSnRK1a-GFP (enzyme, UniProt Q852Q2 1-505)
chain: B1 chain
[1]
  binding: binds
